Measurements as given in patent US9877918B2, “Long-lasting controlled-release liposome composition and method for producing same” (TERUMO KABUSHIKI KAISHA, priority 2011, dated 2018).
Where a name gives a salt, the structure may show the parent alone.

Assay: Pharmacokinetics of DNP liposome, concentration of donepezil hydrochloride in plasma after subcutaneous administration
Details: rat, SC 5 mg/kg as donepezil hydrochloride

time of maximum in-blood concentration after administration: 0.5 h
concentration of donepezil hydrochloride in blood after 48 hours (48 hours after administration): below the detection limit
Compound: COc1cc2c(cc1OC)C(=O)C(CC1CCN(Cc3ccccc3)CC1)C2 (centres unmarked) [donepezil hydrochloride alone, Donepezil Hydrochloride]
